# Data published in PubChem BioAssay AID1347076 (National Center for Advancing Translational Sciences (NCATS), 2019).
# Among all 400,000 compounds or so, about 13,000 (3.2%) were called active. Inconclusive results, whose numbers are uncertain, are shown with a selection of clear calls. The call rests on the fitted dose curve; in most records, active means well fitted cell-killing curve with a large enough effect; inconclusive means small, poorly fitted or top-dose-only effect, or effect the other way; inactive means flat fitted curve, though single readings scatter. A potency beside an inconclusive call is a rough fit, not a confirmed value.
# Experiment: qHTS assay for MDR1-selective chemotherapeutics: Primary screen using the drug-selected MDR subline cells KB-V1; further: nearly all actives have a fitted effect of over 60% in size
# Details: KB-V1 MDR cells viability, CellTiter-Glo, 72 h; series mostly up to 46.1 µM
# In short: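 qHTS viability screen in drug-selected KB-V1 MDR cells: 72 h compound treatment at 37 degrees C, ATP luminescence end point.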
# Potency means the concentration at half of the fitted maximal effect.
row,Structure (SMILES),Potency
1,Cc1ccccc1-c1nnc2c3ccccc3c(C)nn12,active: 7.31 µM
2,COc1ccc(-c2noc(-c3ccoc3C)n2)cc1,"inconclusive: 16.4 µM [cytotoxic, single point]"
3,CCCNC(=O)NC(=O)CN1C(=O)NC(C)(c2ccc3ccccc3c2)C1=O (stereo not given),inactive
4,C[C@@H](c1ccccc1)N1Cc2ccccc2Oc2cc(Br)ccc2S1(=O)=O,inactive
5,O=[N+]([O-])c1cc(C(F)(F)F)ccc1NC1CCN(Cc2ccccc2)C1 (stereo not given),inactive
6,CN(C)S(=O)(=O)c1ccc2[nH]cc(/C=C/c3nc4ccccc4c(=O)n3-c3ccccc3)c2c1,"inconclusive: 4.11 µM [cytotoxic, full curve]"
7,Cc1ccc(-c2nnc(Nc3ccc(O)cc3)c3ccccc23)cc1S(=O)(=O)N1CCOCC1,inactive
8,CN1/C(=C/C=N/n2cnnc2)C(C)(C)c2ccccc21,"inconclusive: 13 µM [cytotoxic, partial curve, poor fit]"
9,COc1ccc(Cl)cc1NC(=O)CN1C(=O)COc2ccc(S(=O)(=O)NC3CCCC3)cc21,inactive
10,COc1ccc(NC(=O)CSc2ncccc2C(=O)OC(C)C)cc1OC,inactive
11,Cc1ccc(NC(=O)C(C)OC(=O)COc2cccc(C(F)(F)F)c2)cc1S(=O)(=O)N1CCOCC1 (stereo not given),"inconclusive: 29.1 µM [cytotoxic, single point]"
12,C=CCOC(=O)C1=C(C)N=C2SCCC(=O)N2C1c1cccs1 (stereo not given),"inconclusive: 29.1 µM [cytotoxic, single point]"
13,COc1ccc(NC(=O)c2cc(-c3ccc(F)cc3OC)n[nH]2)c(OC)c1,"inconclusive: 14.6 µM [cytotoxic, partial curve]"
14,CC(C)N1C(=O)CN(C2CCCCCC2)C(=O)C1c1ccccc1F (stereo not given),inactive
15,Cc1cc(Cl)c(OCCOCCN2CCC(C)CC2)c(Br)c1,"inconclusive: 8.2 µM [cytotoxic, partial curve]"
16,O=C(COC(=O)c1ccc2ccccc2n1)Nc1ccccc1F,inactive
17,CCC(c1nnnn1Cc1ccccc1)N(Cc1ccco1)Cc1cc2cc(OC)ccc2[nH]c1=O (stereo not given),inactive
18,Cc1nc2sc(C(c3cccc(F)c3)N3CCOCC3)c(O)n2n1 (stereo not given),"inconclusive: 18.4 µM [rising, single point]"
19,O=[N+]([O-])c1ccc(N/N=C/c2c[nH]c3ccccc23)c(S(=O)(=O)Nc2ccc(Cl)cc2)c1,"inconclusive: 18.4 µM [cytotoxic, single point]"
20,CCOc1cc2c(cc1O)C(=NOC)CC1C2CCC2(C)C(O)CCC12 (stereo not given),active: 0.517 µM
21,O=C(NCCCn1ccnc1)/C(=C/c1ccccc1)NC(=O)c1ccccc1,inactive
22,COc1ccc([C@@H]2C[C@@H](c3ccccc3)Oc3cc(OC)c(OC)c(OC)c32)cc1,"inconclusive: 18.4 µM [rising, single point]"
23,CC1CCCN(C(=O)c2cc3c(Cl)nc4ccccc4c3s2)C1 (stereo not given),"inconclusive: 0.0058 µM [rising, full curve, poor fit]"

# As a short view, some entries already given.
row,Structure (SMILES),Potency
13,COc1ccc(NC(=O)c2cc(-c3ccc(F)cc3OC)n[nH]2)c(OC)c1,"inconclusive: 14.6 µM [cytotoxic, partial curve]"
14,CC(C)N1C(=O)CN(C2CCCCCC2)C(=O)C1c1ccccc1F (stereo not given),inactive
15,Cc1cc(Cl)c(OCCOCCN2CCC(C)CC2)c(Br)c1,"inconclusive: 8.2 µM [cytotoxic, partial curve]"
16,O=C(COC(=O)c1ccc2ccccc2n1)Nc1ccccc1F,inactive
17,CCC(c1nnnn1Cc1ccccc1)N(Cc1ccco1)Cc1cc2cc(OC)ccc2[nH]c1=O (stereo not given),inactive
18,Cc1nc2sc(C(c3cccc(F)c3)N3CCOCC3)c(O)n2n1 (stereo not given),"inconclusive: 18.4 µM [rising, single point]"
19,O=[N+]([O-])c1ccc(N/N=C/c2c[nH]c3ccccc23)c(S(=O)(=O)Nc2ccc(Cl)cc2)c1,"inconclusive: 18.4 µM [cytotoxic, single point]"
20,CCOc1cc2c(cc1O)C(=NOC)CC1C2CCC2(C)C(O)CCC12 (stereo not given),active: 0.517 µM

# Further entries.

row,Structure (SMILES),Potency
1,Cc1ccc(OCc2nc3ccccc3n2CCOc2ccc(Cl)cc2)cc1,"inconclusive: 29.1 µM [cytotoxic, single point]"
2,CS(=O)(=O)CCC(C(=O)Nc1cccc(C(F)(F)F)c1)N1Cc2ccccc2C1=O (stereo not given),inactive
3,CS(=O)(=O)Nc1ccc(C2=NN(C(=O)c3ccco3)C(c3ccccc3)C2)cc1 (stereo not given),active: 16.4 µM
4,O=C(CCN1CCN(c2ccccc2)CC1)NNC(=S)Nc1ccccc1Cl,"inconclusive: 16.4 µM [cytotoxic, single point]"
5,Cc1cccc(NC(=O)COC(=O)Cc2cccc(C(F)(F)F)c2)c1C,"inconclusive: 20.6 µM [rising, single point]"
6,NC(=O)N=Nc1c(O)n(Cc2ccccc2)c2ccc(Br)cc12,"inconclusive: 18.4 µM [rising, partial curve, poor fit]"
7,CC(C)[C@H](NC(=O)c1ccccc1)C(=O)OCC(=O)c1ccc(S(=O)(=O)N2CCCCC2)cc1,active: 20.6 µM
8,Cn1c(=O)c(C(=O)Nc2ncccc2O)c(O)c2ccccc21,"inconclusive: 1.84 µM [cytotoxic, full curve]"
9,Cc1ccccc1-c1nc(-c2ccc(NC(=O)c3ccc4c(c3)OCO4)cc2)no1,"inconclusive: 3.98 µM [cytotoxic, partial curve]"
10,O=C1CCN(Cc2ccccc2)CCN1[C@H](CO)c1ccccc1,"inconclusive: 8.2 µM [cytotoxic, partial curve]"
11,O=C(CNC(=O)c1cccc([N+](=O)[O-])c1)OCCCC(=O)c1ccc(F)cc1,"inconclusive: 23.1 µM [rising, single point]"
12,CC[C@@H]1[C@H]2CCCC(=O)N3CC[C@@H](C[C@@H]1OC(=O)Nc1ccc4c(c1)OCO4)[C@@H]23,inactive
13,CCn1c(SC(C)C(=O)NCc2ccco2)nnc1-c1ccccc1 (stereo not given),inactive
14,C=CCc1cccc2cc(C(=O)N3CCN(C(=O)c4ccco4)CC3)c(=O)oc12,"inconclusive: 29.1 µM [cytotoxic, partial curve, poor fit]"
15,CCCc1nc2ccccc2c(=O)n1/N=C/c1ccc(O)cc1,"inconclusive: 13 µM [cytotoxic, partial curve]"
16,Cc1ccc(-c2nc(SCC(=O)NCc3ccco3)c3c(=O)n(C)c(=O)n(C)c3n2)cc1,"inconclusive: 0.411 µM [rising, full curve, poor fit]"
17,Cn1c(=O)n(Cc2ccc(F)cc2)c(=O)c2c1nc1n2CCN1Cc1ccco1,"inconclusive: 11.6 µM [cytotoxic, partial curve]"
18,Cc1ccc(-c2nc3ccccc3o2)cc1NC(=S)NC(=O)/C=C/c1ccco1,"inconclusive: 29.1 µM [cytotoxic, single point]"
19,CC1CCCC(NC(=O)CC2Nc3ccccc3NC2=O)C1C (stereo not given),active: 16.4 µM
20,O=S(=O)(c1ccc(Oc2ncnc3scc(-c4ccccc4)c23)cc1)N1CCOCC1,"inconclusive: 29.1 µM [cytotoxic, single point]"
21,O=C(COc1ccc(Cl)cc1Br)NC(=O)NC1CCCC1,inactive
22,COC(=O)c1ccc(CN2CCCC(CO)(Cc3ccc(F)cc3F)C2)cc1 (stereo not given),inactive
